Experimental data taken from paper PMC8546615, “Polyketide Starter and Extender Units Serve as Regulatory Ligands to Coordinate the Biosynthesis of Antibiotics in Actinomycetes” (mBio, 2021).

Key:
[1] = molecular target: T1, AcrT (Saccharopolyspora erythraea A226) (UniProt A4FGS6); assay: EMSA; settings: EMSA: binding buffer (composition not given), 30 C 20 min, 6% native PAGE in TAE, recombinant protein, protein details: N-terminal His (pET28a), probe letters rebuilt from the primers and the genome
T1 sequence (looked up, limits assumed): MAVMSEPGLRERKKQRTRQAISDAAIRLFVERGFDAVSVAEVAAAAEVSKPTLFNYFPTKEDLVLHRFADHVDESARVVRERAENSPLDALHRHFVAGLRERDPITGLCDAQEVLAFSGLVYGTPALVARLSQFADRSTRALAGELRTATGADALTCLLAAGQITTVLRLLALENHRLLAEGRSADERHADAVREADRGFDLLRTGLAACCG

[2] = system: T2, AcrTSa (Streptomyces avermitilis NRRL8165); assay: EMSA; settings: EMSA: binding buffer (composition not given), 30 C 20 min, 6% native PAGE in TAE, recombinant protein, residues 1-204, protein details: His (pET28a), probe letters rebuilt from the primers and the genome
T2 sequence (looked up): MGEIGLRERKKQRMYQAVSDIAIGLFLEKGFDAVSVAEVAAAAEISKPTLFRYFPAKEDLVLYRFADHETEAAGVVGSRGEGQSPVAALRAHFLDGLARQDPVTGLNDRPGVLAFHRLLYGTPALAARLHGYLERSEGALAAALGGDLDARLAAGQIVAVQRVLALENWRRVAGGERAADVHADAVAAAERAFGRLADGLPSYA

[3] = molecular target: T1, AcrT (Saccharopolyspora erythraea A226); assay: BLI; settings: BLI: 1 mM Tris-HCl pH 8.0, 5 mM MgCl2, 60 mM KCl, 10 mM DTT, 50 mM EDTA, 10% glycerol, 25 C, recombinant protein, protein details: N-terminal His (pET28a), label: biotin

“CGCGTAGGACTCCGAGGCCGGGTCGACGGCCGTGGTGAGGACGGGCGCATCCATGCGTTGTGCACACCTTCCGCGGTCAGCGCGTTAGTCATCGTTAACCAACGGGATCGATGTTAACGACGACTAACCCCTTCGTCTAGTATCGACACGATGGAGGCAAAGCCGTCCCGGCGCGAGCAGATCCTGGAAG (double strand) [P7038-7039]”: binds more weakly ([1]; methylmalonyl-CoA); binds more weakly ([1]; propionyl-CoA).

“GACGTCCTCCTCCTGGTGCGGTCGGTTTGGACGTGTCCTCACCTACACCGAGGCGGCGCGGGCGCGCGTGGATACGTCACCGGCGCCGTCGATCCGGATCCGCCTCGGCATGTATCCCGCGGCGGCGCAGCCCGCTCTGTACGGGTGGATCTCGCGGGCGAGCCGACTCCGCGTCGAGCCACGCGCGAGGTCACCGCGCGAGACGGGTCCCGCTCGTCCGCGACGACCTGTGAGGAGGGACGTGGTGAGT (double strand) [P0018-0028]”: binds more weakly ([1]; methylmalonyl-CoA); binds more weakly ([1]; propionyl-CoA).

“GCTGCTTCTTTAGCACACCGCTACCAGCGCCAAATCGATGTGACCAGGCGTTTTACCTCGACATGATTGTTTGTTTACAACCTTTTTTCAGGCGTTTGCGCTCGCAGGCGTTGCTTTGGCGAGCGCGCTGTGATCTTCGTCATCAGTTCGGTGAGGGCACTCGATCCGATTGCGTGAGCGCCACCCCGCGGTGCACTGTTGCACGACGACCACGGCCGCTTCCGCGTTCCGAACCCCCGCCACGTCGAAACCGCGCGCGCCCGCGCGCGGCACCACCGAGCGTGAGAGACGAGGCATC (double strand) [P0632-0633]”: binds more weakly ([1]; methylmalonyl-CoA); binds more weakly ([1]; propionyl-CoA).

“GGCAACACGACTGAACACCGACTCGAGCCTCCTGATTCACTGCAACCTGTCCGAGGGCGGTCTAGCCCCACGATGGGACACGATCTCGGTTACCGGCCAGTATGGAAATGTAGAACACGCCCCATGATCCGAACCAAAAGTCGTAAGGAATCGCCAAAGTGCAGGTTCCGGCGGGGGCGTTGCGGCCGGGAACCCGCTCCGGGAGGCTCCGCGGCGCCGGTCCGGCCCACGGCGAGTGGCCGGAGCGGCACTCTCGGTTCGGGCGGTCCGGCTACGTGATTCGTGCCATGTACCTGGCAGGTTGCTGCCACGCGCAGT (double strand) [P4237]”: no binding [1].

“CTGAGCTGTGTCCTCACCGCTAGGCAATGCTCGGCGGCCGTGCGGACATGATGAGAGCTGCAATGCAGCGTCGAAGAATGAAAGGAGCGCGAGAAATCCGCTGACGGCCGGGCATCAATGTCTTGAACGTCTTCAACTCTTCAAAGCTAATGACGGCGCGGCGGCGGCGAATACCCCTATCCACCCCTGGGCTGTGCCGTTCCCAAGGGTGTTCATTTCTTAGGGGATCGGGGTGTCTGCATAGCTCGGACAAGTGGCAGAAAAAGGTCTACGTTTCCTGGAGTAGATCGCCACGACAGCTGGGCCGCCCGGCCCGGATTGCGGAGGTTCCCGA (double strand) [PaveA1]”: binds [2]; binds more weakly ([2]; M-CoA); binds ([2]; acetyl-CoA (no effect)). “CTGAGCTGTGTCCTCACCGCTAGGCAATGCTCGGCGGCCGTGCGGACATGATGAGAGCTGCAATGCAGCGTCGAAGAATGAAAGGAGCGCGAGAAATCCGCTGACGGCCGGGCATCAATGTCTTGAACGTCTTCAACTCTTCAAAGCTAATGACGGCGCGGCGGCGGCGAATACCCCTATCCACCCCTGGGCTGTGCCGTTCCCAAGGGTGTTCATTTCTTAGGGGATCGGGGTGTCTGCATAGCTCGGACAAGTGGCAGAAAAAGGTCTACGTTTCCTGGAGTAGATCGCCACGACAGCTGGGCCGCCCGGCCCGGATTGCGGAGGTTCCCGA (double strand) [PaveA1]”: binds more weakly ([2]; isobutyryl-CoA); binds more weakly ([2]; methylbutyryl-CoA); binds more weakly ([2]; methylmalonyl-CoA).

For “AGGCGATGTCAACCTCTTGATCCTTCCTATATTGTTCGCCCATTGCGTGG (double strand) [50-bp site A probe]”, the Kd ([3]; 400 uM methylmalonyl-CoA) was 50.8 nM, the Kd ([3]; 400 uM propionyl-CoA) was 81.1 nM and the Kd ([3]; 800 uM methylmalonyl-CoA) was 155 nM. For the same sequence, the Kd ([3]; 800 uM propionyl-CoA) was 194 nM.

Tags and fusion partners may be left off the protein sequences shown. Construct, isoform or probe ends are uncertain for at least one entry. For some assays here: A negative result means that nothing was seen under these conditions. For some assays here: A weaker result is weaker than the reference pair of the same experiment.
